Test results as given in the supplement of paper PMC11732987, “Enantioselective OTUD7B fragment discovery through chemoproteomics screening and high-throughput optimisation” (Communications Chemistry, 2025).
Some of the results follow. The data scatter; read single values as rough.

Amino acid sequences for entries named in this document (tags omitted). A change or cut given only in a name is not applied to a line headed by its entry. Residues count along the entry.
UniProt Q7Z6M1: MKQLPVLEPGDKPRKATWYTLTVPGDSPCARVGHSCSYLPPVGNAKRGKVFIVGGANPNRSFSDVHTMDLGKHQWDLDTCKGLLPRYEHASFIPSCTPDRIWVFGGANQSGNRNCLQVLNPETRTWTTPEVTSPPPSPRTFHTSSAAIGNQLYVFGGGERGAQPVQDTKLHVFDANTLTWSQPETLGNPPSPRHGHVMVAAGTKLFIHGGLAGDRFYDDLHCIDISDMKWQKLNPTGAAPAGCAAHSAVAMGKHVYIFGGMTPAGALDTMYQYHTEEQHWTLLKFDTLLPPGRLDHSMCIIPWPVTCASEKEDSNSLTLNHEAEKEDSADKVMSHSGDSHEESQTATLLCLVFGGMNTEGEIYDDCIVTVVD
UniProt Q99638: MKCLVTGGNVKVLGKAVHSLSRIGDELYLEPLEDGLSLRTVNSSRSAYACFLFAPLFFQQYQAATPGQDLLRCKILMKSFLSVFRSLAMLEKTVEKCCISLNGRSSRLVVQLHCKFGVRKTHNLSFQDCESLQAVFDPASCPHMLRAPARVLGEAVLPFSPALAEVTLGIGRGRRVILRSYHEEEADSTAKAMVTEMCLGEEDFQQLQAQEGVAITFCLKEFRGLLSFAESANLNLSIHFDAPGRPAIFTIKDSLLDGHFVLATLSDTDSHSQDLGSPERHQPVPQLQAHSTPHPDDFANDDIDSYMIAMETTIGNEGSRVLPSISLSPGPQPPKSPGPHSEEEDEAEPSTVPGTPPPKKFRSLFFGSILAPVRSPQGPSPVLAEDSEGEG
UniProt Q13200, 457-478: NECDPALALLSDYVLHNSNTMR
UniProt Q14671: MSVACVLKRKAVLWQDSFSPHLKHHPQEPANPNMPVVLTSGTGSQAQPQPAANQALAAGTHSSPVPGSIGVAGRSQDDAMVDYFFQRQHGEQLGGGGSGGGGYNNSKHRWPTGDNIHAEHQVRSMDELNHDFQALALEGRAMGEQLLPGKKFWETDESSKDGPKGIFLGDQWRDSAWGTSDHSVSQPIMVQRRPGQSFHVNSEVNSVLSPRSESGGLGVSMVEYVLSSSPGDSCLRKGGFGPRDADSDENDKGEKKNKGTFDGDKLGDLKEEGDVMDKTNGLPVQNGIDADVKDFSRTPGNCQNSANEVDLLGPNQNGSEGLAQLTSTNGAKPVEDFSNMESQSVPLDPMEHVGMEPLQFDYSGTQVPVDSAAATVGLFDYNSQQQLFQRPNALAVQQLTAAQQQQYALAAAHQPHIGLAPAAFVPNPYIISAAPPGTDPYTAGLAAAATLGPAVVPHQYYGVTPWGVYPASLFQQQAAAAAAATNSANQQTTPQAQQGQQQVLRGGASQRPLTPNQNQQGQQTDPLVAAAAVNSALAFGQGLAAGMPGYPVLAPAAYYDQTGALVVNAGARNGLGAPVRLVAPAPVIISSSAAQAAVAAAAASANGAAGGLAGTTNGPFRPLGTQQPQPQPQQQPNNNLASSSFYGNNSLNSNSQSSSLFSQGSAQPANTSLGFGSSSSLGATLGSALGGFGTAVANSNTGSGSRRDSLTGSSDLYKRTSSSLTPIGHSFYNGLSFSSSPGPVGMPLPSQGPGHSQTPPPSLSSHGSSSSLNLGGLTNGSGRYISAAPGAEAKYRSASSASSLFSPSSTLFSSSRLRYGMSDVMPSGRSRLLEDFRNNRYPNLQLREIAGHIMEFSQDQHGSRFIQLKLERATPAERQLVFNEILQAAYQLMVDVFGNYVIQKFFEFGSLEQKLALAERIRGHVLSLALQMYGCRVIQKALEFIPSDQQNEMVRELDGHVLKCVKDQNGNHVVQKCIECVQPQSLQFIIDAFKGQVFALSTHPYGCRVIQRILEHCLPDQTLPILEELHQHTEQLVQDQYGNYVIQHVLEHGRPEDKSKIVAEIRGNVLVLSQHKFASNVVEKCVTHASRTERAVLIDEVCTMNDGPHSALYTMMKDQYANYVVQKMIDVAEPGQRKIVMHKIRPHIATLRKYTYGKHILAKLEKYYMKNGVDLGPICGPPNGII
UniProt Q96QR8: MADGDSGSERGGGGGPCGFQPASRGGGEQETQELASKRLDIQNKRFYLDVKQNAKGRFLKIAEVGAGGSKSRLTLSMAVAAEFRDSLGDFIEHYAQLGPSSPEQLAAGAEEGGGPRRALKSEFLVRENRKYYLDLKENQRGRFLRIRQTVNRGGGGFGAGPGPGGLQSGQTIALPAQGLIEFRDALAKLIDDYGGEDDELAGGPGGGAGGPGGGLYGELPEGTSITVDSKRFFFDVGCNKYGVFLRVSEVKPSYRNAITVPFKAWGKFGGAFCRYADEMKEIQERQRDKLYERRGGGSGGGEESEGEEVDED
UniProt Q92696: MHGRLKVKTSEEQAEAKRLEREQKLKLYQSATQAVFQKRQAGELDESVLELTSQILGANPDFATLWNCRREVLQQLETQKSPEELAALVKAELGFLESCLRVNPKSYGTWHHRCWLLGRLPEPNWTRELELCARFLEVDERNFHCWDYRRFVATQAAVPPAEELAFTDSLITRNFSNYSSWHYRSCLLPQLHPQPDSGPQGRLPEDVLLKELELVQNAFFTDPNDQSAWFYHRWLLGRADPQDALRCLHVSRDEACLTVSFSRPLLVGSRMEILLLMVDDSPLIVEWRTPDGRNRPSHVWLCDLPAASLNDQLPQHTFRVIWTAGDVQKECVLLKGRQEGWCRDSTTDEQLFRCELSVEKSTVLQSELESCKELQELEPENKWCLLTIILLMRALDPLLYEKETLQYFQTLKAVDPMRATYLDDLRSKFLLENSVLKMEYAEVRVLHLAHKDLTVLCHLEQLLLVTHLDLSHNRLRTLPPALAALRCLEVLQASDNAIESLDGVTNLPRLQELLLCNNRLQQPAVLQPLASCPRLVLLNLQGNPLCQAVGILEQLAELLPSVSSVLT
UniProt Q13308: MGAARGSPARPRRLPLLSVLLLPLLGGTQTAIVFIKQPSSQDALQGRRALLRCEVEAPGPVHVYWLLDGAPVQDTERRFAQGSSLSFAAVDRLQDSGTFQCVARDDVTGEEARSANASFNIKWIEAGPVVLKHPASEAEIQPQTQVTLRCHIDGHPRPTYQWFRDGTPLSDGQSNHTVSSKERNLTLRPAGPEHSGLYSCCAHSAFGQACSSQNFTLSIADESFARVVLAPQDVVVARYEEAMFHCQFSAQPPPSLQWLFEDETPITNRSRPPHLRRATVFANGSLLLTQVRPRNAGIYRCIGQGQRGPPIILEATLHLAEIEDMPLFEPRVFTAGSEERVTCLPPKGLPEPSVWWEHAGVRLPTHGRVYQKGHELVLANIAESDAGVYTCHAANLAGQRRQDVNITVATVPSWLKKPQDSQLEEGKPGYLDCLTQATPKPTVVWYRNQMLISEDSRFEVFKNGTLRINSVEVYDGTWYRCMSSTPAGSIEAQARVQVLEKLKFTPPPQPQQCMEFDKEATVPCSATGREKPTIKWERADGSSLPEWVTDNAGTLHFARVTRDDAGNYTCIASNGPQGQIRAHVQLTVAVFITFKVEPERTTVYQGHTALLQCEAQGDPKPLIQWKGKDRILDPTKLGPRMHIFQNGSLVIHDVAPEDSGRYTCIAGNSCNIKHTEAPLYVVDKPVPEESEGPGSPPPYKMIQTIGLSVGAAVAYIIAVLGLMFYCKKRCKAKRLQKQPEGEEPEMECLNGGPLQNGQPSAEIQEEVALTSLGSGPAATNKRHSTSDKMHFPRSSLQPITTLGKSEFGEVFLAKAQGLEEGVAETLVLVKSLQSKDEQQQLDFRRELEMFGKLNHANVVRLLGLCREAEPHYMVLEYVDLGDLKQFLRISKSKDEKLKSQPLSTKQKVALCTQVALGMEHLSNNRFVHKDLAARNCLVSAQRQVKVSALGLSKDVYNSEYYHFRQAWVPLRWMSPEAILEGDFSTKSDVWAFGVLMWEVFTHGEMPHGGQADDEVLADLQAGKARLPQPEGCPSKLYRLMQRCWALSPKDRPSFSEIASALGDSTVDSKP
UniProt Q06609: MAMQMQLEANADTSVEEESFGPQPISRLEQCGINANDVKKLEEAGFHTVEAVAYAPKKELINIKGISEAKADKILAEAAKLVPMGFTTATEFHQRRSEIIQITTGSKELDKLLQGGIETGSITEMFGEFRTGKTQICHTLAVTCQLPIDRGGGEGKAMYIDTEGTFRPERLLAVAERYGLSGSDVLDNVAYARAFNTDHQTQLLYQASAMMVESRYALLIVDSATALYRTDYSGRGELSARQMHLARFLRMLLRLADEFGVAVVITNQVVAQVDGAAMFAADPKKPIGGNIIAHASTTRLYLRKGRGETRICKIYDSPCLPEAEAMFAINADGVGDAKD
UniProt P18031: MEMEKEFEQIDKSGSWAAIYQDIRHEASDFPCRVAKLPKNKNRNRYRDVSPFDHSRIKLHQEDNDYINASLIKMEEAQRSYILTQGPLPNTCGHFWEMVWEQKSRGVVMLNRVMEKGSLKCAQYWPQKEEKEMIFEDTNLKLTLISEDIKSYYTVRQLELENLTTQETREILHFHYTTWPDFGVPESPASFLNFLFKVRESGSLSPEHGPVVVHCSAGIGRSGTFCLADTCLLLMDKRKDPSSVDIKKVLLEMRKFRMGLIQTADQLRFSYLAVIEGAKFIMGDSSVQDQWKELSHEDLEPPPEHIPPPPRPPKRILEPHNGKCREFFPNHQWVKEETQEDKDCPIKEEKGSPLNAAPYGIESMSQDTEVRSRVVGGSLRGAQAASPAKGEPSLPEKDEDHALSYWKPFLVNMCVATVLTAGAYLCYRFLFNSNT
UniProt P11216: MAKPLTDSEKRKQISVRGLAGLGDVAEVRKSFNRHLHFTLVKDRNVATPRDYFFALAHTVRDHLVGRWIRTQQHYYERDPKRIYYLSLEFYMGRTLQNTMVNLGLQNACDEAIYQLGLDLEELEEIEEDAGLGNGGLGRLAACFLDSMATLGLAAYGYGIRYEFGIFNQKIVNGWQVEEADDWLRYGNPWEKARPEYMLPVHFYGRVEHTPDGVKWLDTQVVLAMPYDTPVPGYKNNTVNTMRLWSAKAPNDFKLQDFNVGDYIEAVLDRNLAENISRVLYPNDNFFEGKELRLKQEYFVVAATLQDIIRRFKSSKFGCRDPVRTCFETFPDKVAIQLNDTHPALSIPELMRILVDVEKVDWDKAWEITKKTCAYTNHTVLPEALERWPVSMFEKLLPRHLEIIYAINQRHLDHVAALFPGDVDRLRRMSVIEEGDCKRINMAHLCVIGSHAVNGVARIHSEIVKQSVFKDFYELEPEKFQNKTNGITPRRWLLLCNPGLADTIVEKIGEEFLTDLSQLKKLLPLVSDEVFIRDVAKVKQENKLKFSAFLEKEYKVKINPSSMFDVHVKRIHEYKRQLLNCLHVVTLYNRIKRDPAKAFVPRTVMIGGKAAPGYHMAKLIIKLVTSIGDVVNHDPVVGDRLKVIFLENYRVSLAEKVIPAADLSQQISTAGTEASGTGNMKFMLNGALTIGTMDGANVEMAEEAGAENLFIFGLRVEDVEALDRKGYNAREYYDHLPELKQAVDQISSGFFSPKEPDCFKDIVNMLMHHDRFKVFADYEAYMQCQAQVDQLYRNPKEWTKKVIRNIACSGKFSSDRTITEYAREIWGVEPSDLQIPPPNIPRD
UniProt Q05397, whole entry, looked up: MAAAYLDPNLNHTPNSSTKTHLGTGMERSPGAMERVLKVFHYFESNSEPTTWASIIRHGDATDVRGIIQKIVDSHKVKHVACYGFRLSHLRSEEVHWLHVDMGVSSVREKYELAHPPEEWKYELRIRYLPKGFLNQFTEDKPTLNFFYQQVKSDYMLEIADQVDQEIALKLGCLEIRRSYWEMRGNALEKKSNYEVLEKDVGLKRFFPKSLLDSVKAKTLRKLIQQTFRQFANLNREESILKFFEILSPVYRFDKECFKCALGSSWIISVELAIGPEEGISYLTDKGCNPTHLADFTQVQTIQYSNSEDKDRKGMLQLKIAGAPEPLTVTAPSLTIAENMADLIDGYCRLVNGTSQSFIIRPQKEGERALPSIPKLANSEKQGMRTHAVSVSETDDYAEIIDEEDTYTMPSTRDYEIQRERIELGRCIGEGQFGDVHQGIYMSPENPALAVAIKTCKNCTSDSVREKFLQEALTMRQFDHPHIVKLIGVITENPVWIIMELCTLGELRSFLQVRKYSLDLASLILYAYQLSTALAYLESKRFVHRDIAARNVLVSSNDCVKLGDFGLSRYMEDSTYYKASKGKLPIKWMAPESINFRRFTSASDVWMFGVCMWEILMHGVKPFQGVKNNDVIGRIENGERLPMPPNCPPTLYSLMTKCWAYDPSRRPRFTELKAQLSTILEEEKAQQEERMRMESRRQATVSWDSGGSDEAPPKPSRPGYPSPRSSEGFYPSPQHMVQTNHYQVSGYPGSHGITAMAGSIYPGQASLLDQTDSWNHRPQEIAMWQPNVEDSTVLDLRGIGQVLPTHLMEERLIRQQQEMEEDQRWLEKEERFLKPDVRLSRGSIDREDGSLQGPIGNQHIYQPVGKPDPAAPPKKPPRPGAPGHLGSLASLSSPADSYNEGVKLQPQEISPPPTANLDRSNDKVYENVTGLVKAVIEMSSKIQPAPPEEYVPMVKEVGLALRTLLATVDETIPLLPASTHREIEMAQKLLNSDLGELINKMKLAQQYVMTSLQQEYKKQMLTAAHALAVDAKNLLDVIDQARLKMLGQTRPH

Compound: ClCC(=O)N[C@@H]1CCCc2ccccc12
Assay: log2 mean competition ratio of IA-DTB cysteine labelling (DMSO/compound) (log2 ratio); higher = stronger cysteine engagement by compound
Conditions: 50 µM; treatment time: 4 h; cell line lysate: HEK293T
Experimental: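 IA-DTB competitive cysteine chemoproteomics in HEK293T RIPA lysate. Lysates were treated with compound 29 or 30 at 50 or 200 µM for 4 h, then IA-DTB (500 µM, 1 h), trypsin-digested, NeutrAvidin-enriched and analysed by diaPASEF. Competition ratio = intensity DMSO / intensity compound (n=4 treated, n=64 DMSO); binding: mean log2 CR ≥ 1 and p ≤ 0.05 plus QC filters. Target is the cysteine site.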

| Target | log2 mean competition ratio |
| --- | --- |
| RABEPK C96 (UniProt Q7Z6M1) | 0.0529 |
| PUM2 C169 | -0.135 |
| RAD9A C3 (UniProt Q99638) | -0.0137 |
| RABGAP1 C969 (UniProt Q9Y3P9) | -0.0682 |
| RABGEF1 C181 (UniProt Q9UJ41) | -0.0721 |
| PSMD2 C459 (UniProt Q13200) | -0.0176 |
| PUM1 C5 (UniProt Q14671) | 0.0674 |
| PURB C273 (UniProt Q96QR8) | 0.109 |
| QSER1 C1709 | -0.209 |
| PTPRG C1160 (UniProt P23470) | -0.109 |
| PSMD1 C633 | 0.223 |
| RABGGTA C516 (UniProt Q92696) | 0.372 |
| PTK7 C524 (UniProt Q13308) | 0.0761 |
| RADIL C73 | 0.0505 |
| RAD51 C31 (UniProt Q06609) | -0.242 |
| PTPN1 C32 (UniProt P18031) | -0.0221 |
| PYGB C319 (UniProt P11216) | 0.0363 |
| PTK2 C173 (UniProt Q05397) | 0.233 |
| PSMD2 C251 (UniProt Q13200) | 0.0791 |
| RAB3IP C389 (UniProt Q96QF0) | -0.117 |

Same assay, conditions: 200 µM; treatment time: 4 h; cell line lysate: HEK293T

| Target | log2 mean competition ratio |
| --- | --- |
| RABEPK C96 (UniProt Q7Z6M1) | 0.0213 |
| PUM2 C169 | 0.0548 |
| RAD9A C3 (UniProt Q99638) | 0.0394 |
| RABGAP1 C969 (UniProt Q9Y3P9) | -0.0151 |
| RABGEF1 C181 (UniProt Q9UJ41) | 0.0544 |
| PSMD2 C459 (UniProt Q13200) | -0.022 |
| PUM1 C5 (UniProt Q14671) | 0.187 |
| PURB C273 (UniProt Q96QR8) | 0.267 |
| QSER1 C1709 | 0.245 |
| PTPRG C1160 (UniProt P23470) | -0.104 |
| PSMD1 C633 | -0.0353 |
| RABGGTA C516 (UniProt Q92696) | 0.0204 |
| PTK7 C524 (UniProt Q13308) | 0.318 |
| RADIL C73 | 0.184 |
| RAD51 C31 (UniProt Q06609) | 0.187 |
| PTPN1 C32 (UniProt P18031) | 0.202 |
| PYGB C319 (UniProt P11216) | 0.093 |
| PTK2 C173 (UniProt Q05397) | -0.0466 |
| PSMD2 C251 (UniProt Q13200) | -0.109 |
| RAB3IP C389 (UniProt Q96QF0) | -0.204 |
